In patent US12434076B2, “Low energy immune priming for treating cancer and metastasis” (priority 2017, dated 2025):
“Also recorded” adds a separate entry of the source. At least one structure is not confirmed: it was looked up by name or label, or the drawing left a doubt.

Tests used:
[1] = test system: pro-apoptotic target genes (Bax, Vcp, Pdia3, Armet, Ddit3, Mapk8, Mapk9, Mapk10); assay: Mouse UPR qRT-PCR array of pro-apoptotic genes in tumor tissue; type: in vivo; conditions: compared to untreated controls
XBP1 = assay: Splicing of XBP1 mRNA in tumors; type: in vivo, mouse; conditions: LOFU-induced splicing
peIF2α = assay: Immunoblot of phosphorylated eIF2α in RM1 tumors; type: in vivo, mouse
RM1 tumor = RM1 tumor growth in C57Bl/6 mice (LOFU, 17AAG); type: in vivo, mouse; conditions: low dose 17AAG 25 mg/kg body weight, C57Bl6 mice
Description: This protocol yielded an approximate in situ spatial-peak temporal-average acoustic intensity of 270 W/cm^2, resulting in estimated average infra-tumoral temperature elevation of 3.2° C. Post-treatment, there were no signs of normal tissue toxicity such as alopecia, thermal damage, or skin wounds. […] Control mice were injected with equal volume of the vehicle DMSO, which was used to solubilize 17AAG.
Tumor model and treatment; C57Bl/6 and BalbC nu/nu mice were injected subcutaneously with 1×10^5 RM-1 (murine prostate cancer cell line) and 1×10^6 PC3 (human prostate cancer cell line) cells on the flank, respectively. Approximately 10 days later, the tumor became palpable (3-5 mm in diameter), whereupon LOFU treatment was initiated. […] Palpable tumors were treated with LOFU every 3-4 days for five fractions administered over two weeks. Animals received 17AAG three times a week during this time. Tumor volume measurements were performed twice weekly using Vernier calipers along with simultaneous physical assessment of signs of systemic toxicity (malaise and diarrhea).

[2] = test system: stem cell transcription factors; assay: qRT-PCR array of stem cell transcription factors in tumors; type: in vivo, mouse
pPERK = assay: Immunoblot of phosphorylated PERK in tumor tissue; type: in vivo, mouse
prostate tumors = assay: TUNEL staining of tumor tissue; type: in vivo, mouse
IRE1α = assay: Real Time-PCR of IRE1α mRNA in tumors; type: in vivo, mouse; conditions: with 17AAG treatment
LAMP-2A = assay: Immunoblot of LAMP-2A (CMA marker) in tumor tissue; type: in vivo, mouse
Beclin = assay: Immunoblot of Beclin (macroautophagy marker) in tumor tissue; type: in vivo, mouse
TRAMPC2 cell line = assay: Proliferation assay (crystal violet), TRAMPC2; type: cell-based, murine
TPSA23 cell line = assay: Proliferation assay (crystal violet), TPSA23; type: cell-based, murine
[3] = 5 μM abiraterone, beyond 48 hours of incubation

**Q.** Which “induction of pro-apoptotic genes” value [1] does the source give for `C=CCNC1=C2C[C@@H](C)C[C@H](OC)[C@H](O)[C@@H](C)/C=C(\C)[C@H](OC(N)=O)[C@@H](OC)/C=C\C=C(/C)C(=O)NC(=CC1=O)C2=O` [17AAG, 17-N-allylamino-17-demethoxygeldanamycinan] here?
**A.** Its value is “minimal induction of pro-apoptotic genes”.

**Q.** And the “splicing of XBP1 mRNA” value (XBP1)?
**A.** The value was “inhibits the splicing of XBP1”.

**Q.** What about the “phosphorylated eIF2α levels” value (peIF2α) of the same compound?
**A.** Its value is “induced phosphorylation of eIF2α over the basal levels”.

**Q.** What about the RM1 tumor growth (RM1 tumor) of the same compound?
**A.** The RM1 tumor growth was “failed to inhibit tumor growth; also recorded: failed to control tumors significantly”.

**Q.** And the “mRNA levels of stem cell transcription factors” value [2]?
**A.** The value was “increased the expression of some transcription factor MRNAs”.

**Q.** And the “pPERK levels (PERK phosphorylation)” value (pPERK)?
**A.** The value was “significant increase in pPERK levels”.

**Q.** And the “apoptosis (TUNEL staining)” value (prostate tumors)?
**A.** The value was “induced significant apoptosis; also recorded: induced apoptosis in tumor tissue”.

**Q.** What about the “LOFU induced increase in IRE1α expression” value (IRE1α) of the same compound?
**A.** Its value is “did not alter”.

**Q.** What about the LAMP-2A expression level (LAMP-2A) of the same compound?
**A.** The LAMP-2A expression level was “induced the expression of LAMP-2A; also recorded: upregulates the LAMP2a expression level”.

**Q.** And the Beclin levels (Beclin)?
**A.** Its Beclin levels is “remain unchanged”.

**Q.** Which results are given for `C[C@]12CC[C@H](O)CC1=CC[C@@H]1[C@@H]2CC[C@]2(C)C(c3cccnc3)=CC[C@@H]12` [abiraterone]?
**A.** proliferation (TRAMPC2 cell line; [3]): significantly inhibited proliferation; proliferation (TRAMPC2 cell line; 10 μM abiraterone): eliminated the proliferation capacity; proliferation (TPSA23 cell line; [3]): significantly inhibited proliferation; proliferation (TPSA23 cell line; 10 μM abiraterone): eliminated the proliferation capacity
